Results reported in PubChem BioAssay AID504444 (National Center for Advancing Translational Sciences (NCATS), 2011).
In all, about 360,000 compounds went through this assay and about 7,500 (2.1%) were called active. Inconclusive means that the source gave no clear call. Such entries were picked first, then a sample of the others. Calls follow the shape of the dose curve; as a rule, active = well fitted inhibition curve with a large enough effect; inconclusive = small, poorly fitted or top-dose-only effect, or effect the other way; inactive = flat fitted curve, though single readings scatter. Potencies beside an inconclusive call are fits to weak or partial responses and may not hold up.
% is scaled to controls: 0 for no effect and ±100 for the full control effect; potency is read from the fitted curve at half-maximal effect.

Assay: Nrf2 qHTS screen for inhibitors; also: nearly all actives have a fitted effect of over 60% in size
Conditions: A549 ARE-Fluc reporter, luciferase luminescence, 18-24 h; activity change, negative = inhibition: at 46 µM (top of the series)
Summary of the method: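 Reporter: ARE-Fluc in A549. Exposure: 18-24 h, 37 °C, 5% CO2, 5% FBS OPTI-MEM. Readouts: fluorescent cytotoxicity (CellTiter-Fluor), then luminescent Nrf2 signal after BugLite.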
In the case of O=C(Cc1ccc(Cl)cc1Cl)NCc1cccnc1, the “activity change, negative = inhibition” value is reported as inactive: -6.78%.
In the case of COc1ccc2c(c1)c(=O)c(S(=O)(=O)c1ccccc1)cn2CC(=O)Nc1ccc(C)c(Cl)c1, the “activity change, negative = inhibition” value is reported as inactive: 1.7%.
For O=C(CSC1=NCCS1)c1ccc(Cl)cc1, the Potency was active: 13 µM.
For COc1ccccc1OCc1cc(C(=O)NCc2ccc(N3CCCC3=O)cc2)no1, the Potency was inconclusive: 29.1 µM [falling, single point].
With CCN(CC)C(=O)c1c(C)[nH]c(=S)c(C#N)c1-c1ccco1 the “activity change, negative = inhibition” value was inactive: 7.07%.
For N#Cc1c(/N=C/N2CCCC2)oc(-c2ccccc2)c1-c1ccccc1, the Potency was inconclusive: 29.1 µM [falling, single point].
For Clc1ccccc1-c1nnc(COc2ccccc2)o1, the Potency was inconclusive: 11.6 µM [activator, partial curve].
In the case of CC(C)CNC(=S)N1CCC(c2nc(-c3ccc(F)cc3)no2)CC1, the Potency is reported as inconclusive: 18.4 µM [falling, single point].
With CCc1ccc(S(=O)(=O)Nc2ccc(-c3ccc4nnc(C)n4n3)cc2)s1 the Potency was inconclusive: 20.6 µM [falling, partial curve].
With Cc1c(C(=O)c2ccccc2)oc2ccc3ccccc3c12 the Potency was inconclusive: 9.2 µM [activator, partial curve].
In the case of Cc1nc(Oc2ccc(S(=O)(=O)N3CCOCC3)cc2Cl)c2c3c(sc2n1)CCCC3, the Potency is reported as inconclusive: 29.1 µM [falling, single point].
With CCOc1ccc(S(=O)(=O)N(C)c2ccc(OCC(=O)NCC3CCCO3)cc2)cc1 (stereo not given) the Potency was inconclusive: 13 µM [falling, partial curve, poor fit].
For N#Cc1c(N)nc2c(c1-c1ccccc1)CCCC2, the Potency was inconclusive: 3.66 µM [falling, full curve].
With Cc1cccc(NC2=C/C(=N/S(=O)(=O)c3cccs3)c3ccccc3C2=O)c1 the Potency was inconclusive: 18.4 µM [falling, single point].
For COc1cc(O)c(C(CCN2CCCC(C)C2)c2ccc3c(c2)OCO3)c(OC)c1 (stereo not given), the Potency was “inactive”.
With Cc1cc(Cl)ccc1OCCCC(N)=O the Potency was inconclusive: 3.66 µM [activator, single point].
For Cc1ccc(NC(=O)C(=O)Nc2ccccn2)cc1, the Potency was inconclusive: 25.9 µM [falling, single point].
For O=C(O)CN1C(=O)CCS(=O)c2ccccc21 (stereo not given), the Potency was inconclusive: 32.6 µM [activator, single point].
With CCOC(=O)c1sc2ccccc2c1S(=O)(=O)Nc1ccc(C(C)=O)cc1 the Potency was inconclusive: 14.6 µM [activator, single point].
In the case of CC12CCC(=O)N1C(C(=O)Nc1ccccc1F)CS2 (stereo not given), the Potency is reported as inconclusive: 5.17 µM [activator, partial curve].
With Cc1cccc(Cn2c(=O)n(Cc3ccccc3)c(=O)c3c2c2cc(C)ccc2n3C)c1 the Potency was inconclusive: 29.1 µM [activator, single point].
For CCn1cc(C(=O)NCCc2ccc(OC)c(OC)c2)c(=O)c2cc(S(=O)(=O)N3CCCCCC3)ccc21, the Potency was inconclusive: 29.1 µM [activator, single point].
In the case of CC1CN(c2nc(Nc3ccccc3)nc(N)c2[N+](=O)[O-])CC(C)O1 (stereo not given), the Potency is reported as inconclusive: 25.9 µM [falling, single point].
For CCCCn1c(SCC(=O)NCCc2ccc(OC)c(OC)c2)nc2c1c(=O)n(C)c(=O)n2C, the Potency was inconclusive: 25.9 µM [activator, single point].
With Nc1ccc(-c2ncc(-c3ccccc3)o2)cc1 the Potency was inconclusive: 10.3 µM [falling, partial curve, poor fit].
For CCN(CC)CCn1c(NC(=O)c2ccccc2O)nc2ccccc21, the Potency was inconclusive: 29.1 µM [falling, single point].
For NNc1nc2c(F)cc(F)cc2s1, the “activity change, negative = inhibition” value was inactive: 22.5%.
With CCOC(=O)c1cc(C)n(CC2CCC(C(=O)Nc3ccccc3OC)CC2)c1C (stereo not given) the Potency was inconclusive: 25.9 µM [falling, partial curve, poor fit].
In the case of C=CCc1c(C)nc(-c2ccccc2)nc1Nc1ccc(O)cc1, the Potency is reported as inconclusive: 11.6 µM [falling, partial curve].
With COc1ccccc1NC(=O)c1oc2ccccc2c1NC(=O)COc1cccc(C)c1 the “activity change, negative = inhibition” value was inactive: -5.82%.
In the case of Cn1c(SCc2ccccc2Cl)nc2ccccc21, the Potency is reported as inconclusive: 18.4 µM [activator, partial curve].
For Cc1ccc2oc(-c3ccc(C)c(NC(=O)C(C)(C)Oc4ccc(Cl)cc4)c3)nc2c1, the Potency was inconclusive: 10.3 µM [activator, partial curve].
In the case of COc1ccc(/C(C)=N/Nc2ccc(C(=O)O)cc2)cc1OC, the Potency is reported as inconclusive: 1.3 µM [activator, full curve, poor fit].
With COC(=O)c1[nH]cnc1C(=O)c1ccccc1 the Potency was inconclusive: 6.51 µM [activator, single point].
With CC1=C(C(=O)OCC2CCCCC2)C(c2ccc(Cl)cc2)CC(=O)N1 (stereo not given) the Potency was inconclusive: 29.1 µM [falling, single point].
In the case of COc1ccc(C(C)=O)cc1CS(=O)(=O)CC(=O)O, the “activity change, negative = inhibition” value is reported as inactive: 6.78%.
In the case of NC(=O)c1ccc(NC(=O)COC(=O)c2c3c(nc4ccccc24)/C(=C\c2ccc4c(c2)OCO4)CCC3)cc1, the Potency is reported as active: 14.6 µM.
In the case of CCNC(=O)c1c(O)c2ccccc2[nH]c1=O, the “activity change, negative = inhibition” value is reported as inactive: -27.1%.
With COC(=O)CNC(=O)c1sc2ncn(CC(=O)Nc3ccc(C)c(Cl)c3)c(=O)c2c1C the Potency was inconclusive: 29.1 µM [activator, partial curve, poor fit].
For Cc1cc2nc(-c3cccnc3SCC(=O)NCc3ccco3)[nH]c2cc1C, the Potency was inconclusive: 1.64 µM [activator, full curve].
In the case of O=C(NCc1ccc2c(c1)OCO2)C1CC(=O)N(c2ccc(F)cc2)C1 (stereo not given), the Potency is reported as inconclusive: 4.61 µM [activator, full curve, poor fit].
With CC1(NC(=O)Nc2cccc3ccccc23)CCS(=O)(=O)C1 (stereo not given) the Potency was inconclusive: 29.1 µM [activator, single point].
In the case of COC(=O)c1sc(N2C(=O)C(O)=C(C(=O)c3ccc(C)o3)C2c2ccc([N+](=O)[O-])cc2)nc1C (stereo not given), the Potency is reported as inconclusive: 29.1 µM [falling, single point].
For Cc1ccc(CSc2nnc(-c3cccnc3)n2N)cc1, the Potency was inconclusive: 0.731 µM [falling, full curve, poor fit].
In the case of CC(C)(C)C1C=C(Sc2ccccc2)C(=O)O1 (stereo not given), the Potency is reported as inconclusive: 25.9 µM [falling, single point].
With COc1ccc(-c2cn3cccc(C)c3n2)cc1F the Potency was inconclusive: 4.61 µM [activator, partial curve].
With Cc1cc2c(cc1C)NC(c1ccccn1)C1=C(CC(C)(C)CC1=O)N2 (stereo not given) the Potency was inconclusive: 2.91 µM [activator, single point].
In the case of Cn1c(=O)n(C)c2cc([N+](=O)[O-])c(N3CCN(C(=O)c4cccc(Cl)c4)CC3)cc21, the Potency is reported as inconclusive: 16.4 µM [falling, single point].
With CC1CCN(C(=O)CCN2C(=O)/C(=C/c3cccs3)SC2=S)CC1 the Potency was inconclusive: 23.1 µM [activator, single point].
In the case of O=C(c1ccccc1O)N(Cc1cccs1)Cc1cccs1, the Potency is reported as inconclusive: 29.1 µM [activator, partial curve, poor fit].
With Cc1ccc(OCC(=O)N2CCCC(CO)(CCOc3ccccc3)C2)cc1 (stereo not given) the Potency was inconclusive: 32.6 µM [falling, single point].
For CCNC(=S)/N=C(\N)Nc1nc(C)c2cc(C)ccc2n1, the Potency was inconclusive: 18.4 µM [activator, partial curve].
With C=CCN(CC=C)C(=O)c1cccc(S(=O)(=O)N2c3ccccc3CC2C)c1 (stereo not given) the Potency was inconclusive: 23.1 µM [falling, partial curve, poor fit].
With Fc1cccc(-c2nnn3c2nc(NC2CCCCC2)c2ccccc23)c1 the “activity change, negative = inhibition” value was inactive: 4.27%.
With CCOC(=O)NC(Nc1sc2c(c1C(=O)OC)CCN(C)C2)(C(F)(F)F)C(F)(F)F the Potency was inconclusive: 16.4 µM [falling, single point].
With COc1ccccc1N(C)S(=O)(=O)c1ccc(Cl)c(C(=O)OCc2c(C)noc2C)c1 the Potency was inconclusive: 23.1 µM [falling, single point].
In the case of O=C(C1CCN(S(=O)(=O)Cc2ccccc2)CC1)N1CCN(c2cccc(C(F)(F)F)c2)CC1, the “activity change, negative = inhibition” value is reported as inactive: 19.2%.
In the case of CCCCc1ccc(NC(=S)N2CCN(C(=O)OCC)CC2)cc1, the Potency is reported as inconclusive: 29.1 µM [falling, single point].
For O=S(=O)([N-]c1nc2ccccc2nc1-[n+]1ccc(-c2ccncc2)cc1)c1ccccc1, the Potency was inconclusive: 2.59 µM [activator, full curve].
With O=C(CNC(=O)c1cc2c(s1)CCC2)Nc1ccccc1Br the Potency was inconclusive: 20.6 µM [activator, single point].
For COc1ccccc1CNC(=O)CN1C(=O)COc2ccc(S(=O)(=O)NC3CCCC3)cc21, the Potency was inconclusive: 23.1 µM [activator, single point].
With CC1CCN(CC2CCN(C(=O)Nc3ccc(Br)cc3F)CC2)CC1 the “activity change, negative = inhibition” value was inactive: 22.6%.
In the case of N/C(CS(=O)(=O)c1ccccn1)=N\OC(=O)c1ccc(Cl)cc1, the Potency is reported as inconclusive: 29.1 µM [activator, single point].
For O=C(COc1ccccc1Cc1ccccc1)Nc1cccc(S(=O)(=O)N2CCOCC2)c1, the Potency was inconclusive: 29.1 µM [falling, single point].
With CCOC(=O)N1CCC(NC(=O)c2cnn3c(C(F)(F)F)cc(-c4cccc(OC)c4)nc23)CC1 the Potency was inconclusive: 2.06 µM [falling, partial curve, poor fit].
